These results are taken from paper PMC12822425.

Amino acid sequences for entries named in this document (tags omitted).
UniProt Q9UPY5: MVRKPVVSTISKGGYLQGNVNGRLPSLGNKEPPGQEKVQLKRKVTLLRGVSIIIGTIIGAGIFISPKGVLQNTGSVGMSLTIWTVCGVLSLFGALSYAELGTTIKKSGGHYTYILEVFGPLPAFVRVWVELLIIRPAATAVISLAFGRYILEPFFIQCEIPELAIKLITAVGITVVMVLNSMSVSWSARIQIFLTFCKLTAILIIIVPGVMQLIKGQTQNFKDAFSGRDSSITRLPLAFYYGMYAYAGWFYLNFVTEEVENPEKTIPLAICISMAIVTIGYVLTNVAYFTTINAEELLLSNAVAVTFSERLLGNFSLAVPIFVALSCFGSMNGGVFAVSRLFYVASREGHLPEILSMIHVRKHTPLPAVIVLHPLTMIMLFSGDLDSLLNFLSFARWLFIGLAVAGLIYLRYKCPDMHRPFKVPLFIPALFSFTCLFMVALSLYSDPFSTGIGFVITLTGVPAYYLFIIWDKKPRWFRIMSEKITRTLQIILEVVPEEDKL

In assay [1] the target is endogenous SLC7A11 (human (endogenous in A549 and H1299)) (UniProt Q9UPY5). Briefly: co-IP; A549 and H1299 cells after CypA overexpression; IP with anti-xCT antibody; blot for CypA and TRIM3.
Assay [2] shares this target. The assay can be described thus: co-IP; endogenous proteins in A549 and H1299 lysates; IP with anti-xCT or anti-CypA antibody at 4 °C overnight, magnetic beads; Western blot. (In general: In western blotting, separated proteins are transferred to a membrane and probed.)

No constants are given. Whether binding was seen depends on the method and setting. Binding seen in cells or lysates may run through a third protein. Some binding calls cover weakened binding; strength is not graded here.

B1: endogenous TRIM3 (enzyme, UniProt O75382 1-744)
chain: MAKREDSPGPEVQPMDKQFLVCSICLDRYQCPKVLPCLHTFCERCLQNYIPAQSLTLSCPVCRQTSILPEQGVSALQNNFFISSLMEAMQQAPDGAHDPEDPHPLSVVAGRPLSCPNHEGKTMEFYCEACETAMCGECRAGEHREHGTVLLRDVVEQHKAALQRQLEAVRGRLPQLSAAIALVGGISQQLQERKAEALAQISAAFEDLEQALQQRKQALVSDLETICGAKQKVLQSQLDTLRQGQEHIGSSCSFAEQALRLGSAPEVLLVRKHMRERLAALAAQAFPERPHENAQLELVLEVDGLRRSVLNLGALLTTSATAHETVATGEGLRQALVGQPASLTVTTKDKDGRLVRTGSAELRAEITGPDGTRLPVPVVDHKNGTYELVYTARTEGELLLSVLLYGQPVRGSPFRVRALRPGDLPPSPDDVKRRVKSPGGPGSHVRQKAVRRPSSMYSTGGKRKDNPIEDELVFRVGSRGREKGEFTNLQGVSAASSGRIVVADSNNQCIQVFSNEGQFKFRFGVRGRSPGQLQRPTGVAVDTNGDIIVADYDNRWVSIFSPEGKFKTKIGAGRLMGPKGVAVDRNGHIIVVDNKSCCVFTFQPNGKLVGRFGGRGATDRHFAGPHFVAVNNKNEIVVTDFHNHSVKVYSADGEFLFKFGSHGEGNGQFNAPTGVAVDSNGNIIVADWGNSRIQVFDSSGSFLSYINTSAEPLYGPQGLALTSDGHVVVADAGNHCFKAYRYLQ
As to B1, the binding result in assay [1] and in assay [2] was “binds” throughout.
